Values from PubChem BioAssay AID1259308 (NCATS, 2017)
The deposit covers about 59,000 reagents; this is a random part of them. Of all reagents, about 1,510 (2.6%) got an active call. 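Calls use total luciferase alone and ignore viability, so some active siRNAs may act by altering cell number.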 Entries without a mark were called inactive. The numbers tell different reagents against one gene apart. Not all columns of the deposit are shown.

Screen: 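Genes whose loss raises luciferase production in HEK293 cells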 (primary screen)
Cell system: human HEK293 embryonic kidney cells stably expressing firefly luciferase (HEK-CMV-Luc2-Hygro)
Reagents: single siRNA against human genes, 0.8 pmol siRNA per well
Duration: 72 h
Detection: 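Luciferase light (ONE-Glo) measured on one replicate plate set and viability (CellTiter-Glo) on the other, scaled to a negative control siRNA, with robust z-scores and luciferase per cell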
Scale: total luciferase, z-score and total luciferase, % of control: higher = more reporter protein produced
Call rule: 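An siRNA counts as active if its total luciferase robust z-score exceeds 3; genes with two or more such siRNAs out of three were retested with fresh siRNAs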
Calls: active = raised luciferase; inactive = no rise

SVBP #1 showed total luciferase, z-score 2.07; total luciferase, % of control 123.
Knock-down of SVBP #2 resulted in: total luciferase, z-score -0.379; total luciferase, % of control 74.3.
After knock-down of SVBP #3 the results were total luciferase, z-score 4.83 (active); total luciferase, % of control 178.
With knock-down of TRAM1L1 #1 the results were total luciferase, z-score 1.02; total luciferase, % of control 102.
Silencing of TRAM1L1 #2 gave: total luciferase, z-score 2.08; total luciferase, % of control 123.
With knock-down of TRAM1L1 #3, the screen gave total luciferase, z-score 0.559; total luciferase, % of control 93.
CD63 #1 gave total luciferase, z-score 0.707; total luciferase, % of control 96.
For CD63 #2, the values are total luciferase, z-score -0.247; total luciferase, % of control 77.
For CD63 #3 the deposit lists total luciferase, z-score -0.602; total luciferase, % of control 69.9.
TGFBR3 #1 scored total luciferase, z-score -0.415; total luciferase, % of control 73.6.
TGFBR3 #2 showed total luciferase, z-score -0.0644; total luciferase, % of control 80.6.
Against TGFBR3 #3, the entry reads total luciferase, z-score -0.235; total luciferase, % of control 77.2.
For EXOC3L1 #1 the deposit lists total luciferase, z-score -1.31; total luciferase, % of control 55.7.
EXOC3L1 #2 scored total luciferase, z-score 0.0341; total luciferase, % of control 82.6.
EXOC3L1 #3 showed total luciferase, z-score -0.441; total luciferase, % of control 73.1.
Against OR4D1 #1, the entry reads total luciferase, z-score 0.0718; total luciferase, % of control 83.3.
OR4D1 #2 showed total luciferase, z-score -1.08; total luciferase, % of control 60.4.
With knock-down of OR4D1 #3 the results were total luciferase, z-score 1.25; total luciferase, % of control 107.
Knock-down of HS3ST2 #1 resulted in: total luciferase, z-score -0.431; total luciferase, % of control 73.3.
For HS3ST2 #2, the values are total luciferase, z-score 0.0514; total luciferase, % of control 82.9.
Knock-down of HS3ST2 #3 gave: total luciferase, z-score 0.881; total luciferase, % of control 99.4.
After knock-down of RNF133 #1, the record shows total luciferase, z-score 0.887; total luciferase, % of control 99.5.
RNF133 #2 scored total luciferase, z-score 0.789; total luciferase, % of control 97.6.
Against RNF133 #3, the values are total luciferase, z-score 0.263; total luciferase, % of control 87.1.
For FBP1 #1 the deposit lists total luciferase, z-score -0.575; total luciferase, % of control 70.4.
FBP1 #2 showed total luciferase, z-score 0.412; total luciferase, % of control 90.1.
Against FBP1 #3, the entry reads total luciferase, z-score -0.279; total luciferase, % of control 76.3.
After knock-down of OR10V1 #1 the results were total luciferase, z-score 1.47; total luciferase, % of control 111.
Against OR10V1 #2, the entry reads total luciferase, z-score -0.472; total luciferase, % of control 72.5.
For OR10V1 #3 the deposit lists total luciferase, z-score -1.54; total luciferase, % of control 51.2.
Silencing of TSR3 #1 resulted in: total luciferase, z-score -0.853; total luciferase, % of control 64.9.
After knock-down of TSR3 #2, the record shows total luciferase, z-score -0.09; total luciferase, % of control 80.1.
TSR3 #3 gave total luciferase, z-score -0.09; total luciferase, % of control 80.1.

Entries listed so far whose gene name starts with O or o:
OR4D1 #1 → total luciferase, z-score: 0.0718; total luciferase, % of control: 83.3
OR4D1 #2 → total luciferase, z-score: -1.08; total luciferase, % of control: 60.4
OR4D1 #3 → total luciferase, z-score: 1.25; total luciferase, % of control: 107
OR10V1 #1 → total luciferase, z-score: 1.47; total luciferase, % of control: 111
OR10V1 #2 → total luciferase, z-score: -0.472; total luciferase, % of control: 72.5
OR10V1 #3 → total luciferase, z-score: -1.54; total luciferase, % of control: 51.2
